Results from US20230405004A1, “COMBINATION THERAPY OF DONEPEZIL AND TADALAFIL FOR THE TREATMENT OF ALZHEIMER'S DISEASE OR COGNITIVE IMPAIRMENT” (NEURORIVE INC, priority 2020, published 2023).

System: mouse brain slice treated with 3 μM amyloid beta
Settings: amyloid beta 3 μM + donepezil 100 nM alone

## COc1cc2c(cc1OC)C(=O)C(CC1CCN(Cc3ccccc3)CC1)C2 (stereo not shown) [Donepezil, donepezil]
  Synaptic long-term potentiation (Increase or decrease compared to Amyloid beta group): 5.71%
